Laboratory results: PubChem BioAssay AID504804 (Drosophila RNAi Screening Center, 2011)
In all, the deposit lists about 19,000 reagents; shown is a random part of those with a known target gene and a result. Over the whole deposit, 47 (0.25%) got an active call. 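Signals are raw, not normalised; exact z-scores behind calls not deposited; actives needed confirmation, so some wells reaching 2 SD are inactive.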 A plus sign joins genes that one reagent is predicted to hit. No sequences are given here.

- Assay: 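Knock-downs shielding fly cells from apoptosis caused by DNA damage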 (primary screen)
- Cell system: Drosophila Kc cells
- Reagent: long dsRNA against Drosophila genes, 0.5 µg dsRNA per well
- Timing: 96 h (48 h knock-down, then 48 h drug)
- Conditions: doxorubicin 5 µg/ml for 48 h, added 48 h after dsRNA
- Detection: 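Luminescent ATP counts per replicate, not normalised, reflecting viable cells after 48 h dsRNA knock-down followed by 48 h of 5 µg/ml doxorubicin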
- Scale: raw ATP luminescence: higher = more viable cells, protection from doxorubicin
- Rule for the call: 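Active when both duplicate wells lie at least 2 SD above the plate mean and protection is confirmed by rescreening and independent dsRNAs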

With knock-down of Vps25 (Vacuolar protein sorting 25) [SID104186278], the record shows raw ATP luminescence, replicate 1 = 47640; raw ATP luminescence, replicate 2 = 93787; inactive.
Silencing of BaraC (Baramicin C) [SID104183677] came out at: SD above plate mean 2 to 3 SD above plate mean; raw ATP luminescence, replicate 1 = 1.08e5; raw ATP luminescence, replicate 2 = 88780; active.
bsh (brain-specific homeobox) [SID104183290] gave raw ATP luminescence, replicate 1 = 1.65e5; raw ATP luminescence, replicate 2 = 2.19e5; inactive.
CG4576 [SID104195396] showed raw ATP luminescence, replicate 1 = 74460; raw ATP luminescence, replicate 2 = 63410; inactive.
CG16779 [SID104194945] gave raw ATP luminescence, replicate 1 = 65403; raw ATP luminescence, replicate 2 = 42180; inactive.
CG3739 [SID104195302] gave raw ATP luminescence, replicate 1 = 51760; raw ATP luminescence, replicate 2 = 59330; inactive.
After knock-down of CheB38c (Chemosensory protein B 38c) [SID104182181] the results were raw ATP luminescence, replicate 1 = 59740; raw ATP luminescence, replicate 2 = 53813; inactive.
With knock-down of Edc3 (Enhancer of decapping 3) [SID104190412] the results were SD above plate mean at least 2 SD above plate mean; raw ATP luminescence, replicate 1 = 43603; raw ATP luminescence, replicate 2 = 42937; active.
Def (Defensin) [SID104187190] gave raw ATP luminescence, replicate 1 = 60867; raw ATP luminescence, replicate 2 = 87577; inactive.
ppk27 (pickpocket 27) [SID104187960] scored SD above plate mean at least 2 SD above plate mean; active.
Knock-down of CG42538 [SID104189204] gave: raw ATP luminescence, replicate 1 = 77810; raw ATP luminescence, replicate 2 = 91750; inactive.
Against CG7376 [SID104190621], the entry reads raw ATP luminescence, replicate 1 = 35690; raw ATP luminescence, replicate 2 = 39973; inactive.
After knock-down of CG12107 [SID104185894], the record shows raw ATP luminescence, replicate 1 = 81853; raw ATP luminescence, replicate 2 = 68467; inactive.
Depletion of Mur29B (Mucin related 29B) [SID104180810] gave: raw ATP luminescence, replicate 1 = 3.43e5; raw ATP luminescence, replicate 2 = 3.00e5; inactive.
Mur29B (Mucin related 29B) [SID104182168] gave raw ATP luminescence, replicate 1 = 39463; raw ATP luminescence, replicate 2 = 89103; inactive.
Against Nazo [SID104194135], the entry reads raw ATP luminescence, replicate 1 = 53633; raw ATP luminescence, replicate 2 = 56820; inactive.

Ordered by “raw ATP luminescence, replicate 2” (highest first): 2 of the entries above
CG4576 [SID104195396] → raw ATP luminescence, replicate 1 = 74460; raw ATP luminescence, replicate 2 = 63410; Outcome = inactive
CG16779 [SID104194945] → raw ATP luminescence, replicate 1 = 65403; raw ATP luminescence, replicate 2 = 42180; Outcome = inactive

The listing continues.
For Adk3 (Adenosine kinase 3) [SID104185709], the values are raw ATP luminescence, replicate 1 = 79960; raw ATP luminescence, replicate 2 = 63160; inactive.
Vajk3 [SID104181675] showed raw ATP luminescence, replicate 1 = 78457; raw ATP luminescence, replicate 2 = 53300; inactive.
Depletion of CG32483 [SID104187694] resulted in: raw ATP luminescence, replicate 1 = 1.53e5; raw ATP luminescence, replicate 2 = 1.73e5; inactive.
Knock-down of AGO2 (Argonaute 2) [SID104189791] came out at: raw ATP luminescence, replicate 1 = 47733; raw ATP luminescence, replicate 2 = 41213; inactive.
Silencing of AGO2 (Argonaute 2) [SID104190639] resulted in: raw ATP luminescence, replicate 1 = 24497; raw ATP luminescence, replicate 2 = 26147; inactive.
CG42809 + CG42810 [SID104182324] scored raw ATP luminescence, replicate 1 = 52147; raw ATP luminescence, replicate 2 = 76667; inactive.
Knock-down of CG42809 + CG42810 [SID104182325] gave: raw ATP luminescence, replicate 1 = 76010; raw ATP luminescence, replicate 2 = 71247; inactive.
Knock-down of Fmr1 (Fragile X messenger ribonucleoprotein 1) [SID104196466] gave: raw ATP luminescence, replicate 1 = 46263; raw ATP luminescence, replicate 2 = 46533; inactive.
CG6321 [SID104190415] gave raw ATP luminescence, replicate 1 = 38340; raw ATP luminescence, replicate 2 = 33870; inactive.
Depletion of CG33639 [SID104199758] came out at: raw ATP luminescence, replicate 1 = 3.98e5; raw ATP luminescence, replicate 2 = 3.47e5; inactive.
Knock-down of CG31204 [SID104194898] gave: raw ATP luminescence, replicate 1 = 48650; raw ATP luminescence, replicate 2 = 21040; inactive.
CG7083 [SID104190928] gave raw ATP luminescence, replicate 1 = 75397; raw ATP luminescence, replicate 2 = 72530; inactive.
